Data on four substances can be found in paper PMC8286969.

Sequences of proteins named here, by UniProt entry; tags and fusion partners are left off.
UniProt P45983: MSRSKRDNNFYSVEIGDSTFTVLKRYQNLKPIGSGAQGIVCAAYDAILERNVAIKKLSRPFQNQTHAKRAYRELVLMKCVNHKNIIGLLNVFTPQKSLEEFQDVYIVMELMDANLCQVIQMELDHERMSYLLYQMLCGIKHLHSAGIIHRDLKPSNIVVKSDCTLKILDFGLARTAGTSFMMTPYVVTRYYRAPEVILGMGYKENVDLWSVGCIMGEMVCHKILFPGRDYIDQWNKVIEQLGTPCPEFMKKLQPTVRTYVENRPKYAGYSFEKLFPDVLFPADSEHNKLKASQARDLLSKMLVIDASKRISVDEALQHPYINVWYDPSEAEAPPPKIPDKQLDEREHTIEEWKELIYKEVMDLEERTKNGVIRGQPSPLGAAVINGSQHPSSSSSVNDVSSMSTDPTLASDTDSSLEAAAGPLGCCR
UniProt P53779: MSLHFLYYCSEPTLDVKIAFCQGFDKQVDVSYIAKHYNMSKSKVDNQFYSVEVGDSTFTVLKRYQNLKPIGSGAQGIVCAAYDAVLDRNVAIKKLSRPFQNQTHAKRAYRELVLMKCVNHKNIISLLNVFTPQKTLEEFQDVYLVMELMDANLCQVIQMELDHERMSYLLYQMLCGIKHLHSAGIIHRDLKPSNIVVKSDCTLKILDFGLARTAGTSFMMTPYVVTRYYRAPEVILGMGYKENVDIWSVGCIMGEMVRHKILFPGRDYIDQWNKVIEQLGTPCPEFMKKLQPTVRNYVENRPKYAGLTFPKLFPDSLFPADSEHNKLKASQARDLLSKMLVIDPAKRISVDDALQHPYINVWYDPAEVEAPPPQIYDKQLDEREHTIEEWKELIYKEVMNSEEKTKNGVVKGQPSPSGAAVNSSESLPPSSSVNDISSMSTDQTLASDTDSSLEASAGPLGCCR
UniProt O14733: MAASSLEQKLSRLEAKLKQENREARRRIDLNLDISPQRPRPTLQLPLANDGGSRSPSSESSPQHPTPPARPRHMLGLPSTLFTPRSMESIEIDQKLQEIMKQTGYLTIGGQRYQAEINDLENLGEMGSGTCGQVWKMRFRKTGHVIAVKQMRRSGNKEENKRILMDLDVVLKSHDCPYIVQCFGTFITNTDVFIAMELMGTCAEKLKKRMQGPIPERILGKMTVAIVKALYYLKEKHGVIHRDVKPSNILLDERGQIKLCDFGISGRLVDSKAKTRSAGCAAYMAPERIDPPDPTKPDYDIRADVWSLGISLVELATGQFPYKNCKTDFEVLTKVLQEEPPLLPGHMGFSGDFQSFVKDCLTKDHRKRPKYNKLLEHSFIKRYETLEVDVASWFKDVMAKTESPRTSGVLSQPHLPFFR

These are yes or no findings as the source states them, for the method shown. In cells and extracts the contact can be indirect. Some results given as binding are weak or reduced against the parent protein; the word gives no strength.

Experiment [1] concerns the target T1, N-terminal segment (amino acid residues 1-411) of RHBDF1 (human) (UniProt Q96CC6).
T1 sequence: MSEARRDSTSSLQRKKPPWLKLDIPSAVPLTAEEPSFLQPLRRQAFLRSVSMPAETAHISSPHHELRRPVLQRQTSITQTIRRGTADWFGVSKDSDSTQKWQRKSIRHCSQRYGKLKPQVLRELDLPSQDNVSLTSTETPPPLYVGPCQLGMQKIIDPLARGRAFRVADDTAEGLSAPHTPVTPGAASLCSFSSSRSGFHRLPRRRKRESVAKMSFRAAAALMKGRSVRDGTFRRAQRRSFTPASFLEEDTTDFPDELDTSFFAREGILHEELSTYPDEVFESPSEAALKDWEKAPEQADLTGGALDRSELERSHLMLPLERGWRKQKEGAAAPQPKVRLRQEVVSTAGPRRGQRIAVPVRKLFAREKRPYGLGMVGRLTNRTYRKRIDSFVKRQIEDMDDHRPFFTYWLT
Description: co-IP; MCF-7 cells co-transfected with JNK1, 2 or 3 and RHBDF1 fragments.

The target in experiment [2] is T2, RHBDF1 (human rhomboid family-1) (UniProt Q96CC6).
T2 sequence: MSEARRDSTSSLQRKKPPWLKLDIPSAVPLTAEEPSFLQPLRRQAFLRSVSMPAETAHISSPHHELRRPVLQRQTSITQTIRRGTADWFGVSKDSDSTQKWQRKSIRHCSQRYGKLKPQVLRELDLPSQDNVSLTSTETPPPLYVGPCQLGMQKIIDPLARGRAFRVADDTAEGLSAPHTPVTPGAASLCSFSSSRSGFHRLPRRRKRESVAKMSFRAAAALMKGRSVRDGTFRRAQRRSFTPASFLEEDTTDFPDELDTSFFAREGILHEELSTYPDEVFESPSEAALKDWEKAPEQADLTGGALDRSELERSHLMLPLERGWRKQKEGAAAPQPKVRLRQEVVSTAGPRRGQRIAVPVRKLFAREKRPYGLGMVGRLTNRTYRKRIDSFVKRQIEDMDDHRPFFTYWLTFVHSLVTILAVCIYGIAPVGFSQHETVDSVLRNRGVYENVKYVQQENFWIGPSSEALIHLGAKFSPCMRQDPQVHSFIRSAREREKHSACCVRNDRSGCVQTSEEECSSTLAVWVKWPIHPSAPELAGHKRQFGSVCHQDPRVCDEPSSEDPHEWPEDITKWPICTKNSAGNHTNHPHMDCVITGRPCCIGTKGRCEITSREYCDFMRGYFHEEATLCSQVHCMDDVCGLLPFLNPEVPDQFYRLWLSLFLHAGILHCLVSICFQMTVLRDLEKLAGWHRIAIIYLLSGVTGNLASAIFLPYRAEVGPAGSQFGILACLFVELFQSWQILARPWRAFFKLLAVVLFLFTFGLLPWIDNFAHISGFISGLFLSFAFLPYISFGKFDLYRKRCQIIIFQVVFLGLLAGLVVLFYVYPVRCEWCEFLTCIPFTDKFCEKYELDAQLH
Description: co-IP; co-immunoprecipitation of endogenous p-JNK and p-MKK7 with RHBDF1; cells and precipitated partner not told.

With JNK1 (from UniProt P45983 1-427), the binding entry in experiment [1] was “binds weakly”.
In the case of JNK2 (from UniProt P45984 1-424), the binding entry in experiment [1] is “binds”.
In the case of JNK3 (from UniProt P53779 1-464), the binding result in experiment [1] was “binds”.
Consider “endogenous p-MKK7 (from UniProt O14733 1-419)”, for which the binding result in experiment [2] is “binds”.
